Source: paper PMC10754441
No constants are given. Whether binding was seen depends on the method and setting. Binding calls can cover weak binding; strength is not graded here. For some assays here: Binding seen in cells or lysates may run through a third protein.

Experiments:
[1] = biological target: DjlA variant with a C-terminal HA-tag (DjlA-HA) (Caulobacter crescentus); assay: ChIP-Seq; formaldehyde-crosslinked chromatin from cells expressing DjlA-HA from the xylX locus, with or without NAL (20 ug/mL, 30 minutes); immunoprecipitation of DjlA-HA by its HA tag; occupancy of the acrA promoter compared with tipR::Tn cells
[2] = biological target: DjlA variant with a C-terminal HA-tag (DjlA-HA) (Caulobacter crescentus); assay: co-IP; anti-HA affinity matrix pull-down of HA-tagged DjlA from C. crescentus lysates, with or without NAL (10 ug/mL, 2 hours); beads overnight at 4°C, washed with 10 mM Tris-HCl 7.5, 150 mM NaCl, 0.5 mM EDTA, 0.5% DDM; immunoblot with polyclonal antibodies to AcrA and TipR

For TipR (from UniProt A0A0H3C6G9), the binding [1] was “binds” and the binding [2] was “binds”.
